These are yes or no findings as the source states them, for the method shown. In cells and extracts the contact can be indirect. A result given as binding can be weak or reduced; the word gives no strength. Where a sequence is shown, tags or fusion partners need not be part of it.
Biological target: BZR1-GFP (Arabidopsis thaliana)
Experiment: co-IP; N. benthamiana leaves transiently co-expressing the GFP-tagged and the HA-tagged protein; total protein (50 mM HEPES pH 7.5, 1 mM EDTA, 0.5% Triton X-100, 1 mM DTT) precipitated with anti-GFP beads on ice for 30 min, three washes; immunoblot with anti-HA and anti-GFP

B1: HA-ULP1a (enzyme, UniProt Q8GYL3 1-502)
chain: MKNQSRVLNSELGDFDLSVLWDQILNFEGYGSYCFRPMDMDGYHKRSAGLNPCKHSGFSHSSRPMAPGIYRYPEVKSSLRRQVHAPVRILNSGRDRSTRQGSGNVLGTFLTRNNDMWKRNALDSSLRYRTDREVIDVDDELGDVEMISDDTSREGVENVAMEVDEVEEKAEMGNGLFSEVASLKNGSLRVGECSKANSSSLVVNRPVTDVTSFEAYRKVLESAVNRTSKLKDRGFVDFFKERGRALLRSLSSFWRQDEEPVEVVQREAFVPLSREEETAVRRAFSANDSNILVTHKNSNIDITGKILRCLKPGKWLNDEVINLYMVLLKEREAREPKKFLKCHFFNTFFFTKLVNSATGYNYGAVRRWTSMKRLGYHLKDCDKIFIPIHMNIHWTLAVINIKDQKFQYLDSFKGREPKILDALARYFVDEVRDKSEVDLDVSRWRQEFVQDLPMQRNGFDCGMFMVKYIDFYSRGLDLCFTQEQMPYFRARTAKEILQLKAE
  binding: binds

Reference: publication PMC7181186
